Assay results from paper PMC8184850, “Cryo-EM structure of TFIIH/Rad4–Rad23–Rad33 in damaged DNA opening in nucleotide excision repair” (Nature Communications, 2021).
Results are given in words; binding and its absence hold for the method and conditions named. Some entries that bind do so weakly or less than the wild type. For some assays here: Sequences can lack the tags named with a protein.

T1: Ssl2 (Saccharomyces cerevisiae), Q00578
T1 chain: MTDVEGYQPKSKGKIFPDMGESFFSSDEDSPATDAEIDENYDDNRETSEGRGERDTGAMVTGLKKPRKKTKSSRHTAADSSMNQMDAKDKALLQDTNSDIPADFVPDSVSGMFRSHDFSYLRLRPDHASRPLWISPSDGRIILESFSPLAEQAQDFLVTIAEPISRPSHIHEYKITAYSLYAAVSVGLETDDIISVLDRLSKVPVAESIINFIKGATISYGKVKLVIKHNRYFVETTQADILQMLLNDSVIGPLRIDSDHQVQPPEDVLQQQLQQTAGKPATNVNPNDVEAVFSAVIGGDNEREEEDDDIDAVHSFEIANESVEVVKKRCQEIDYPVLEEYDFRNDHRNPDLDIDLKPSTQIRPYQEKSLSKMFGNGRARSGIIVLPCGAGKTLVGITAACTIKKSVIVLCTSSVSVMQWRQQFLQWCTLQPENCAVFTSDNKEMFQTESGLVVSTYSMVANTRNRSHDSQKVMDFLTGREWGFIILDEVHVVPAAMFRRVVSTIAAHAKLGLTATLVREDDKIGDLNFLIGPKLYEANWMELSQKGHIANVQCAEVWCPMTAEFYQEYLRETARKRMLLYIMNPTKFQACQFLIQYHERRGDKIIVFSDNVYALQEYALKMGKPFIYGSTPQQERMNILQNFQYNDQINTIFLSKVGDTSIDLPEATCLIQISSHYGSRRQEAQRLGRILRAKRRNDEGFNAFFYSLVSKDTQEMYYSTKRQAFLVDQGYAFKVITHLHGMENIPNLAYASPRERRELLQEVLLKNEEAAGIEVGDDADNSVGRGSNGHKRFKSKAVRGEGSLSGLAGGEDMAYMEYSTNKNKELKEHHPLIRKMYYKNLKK


Columns and labels:
[1] = molecular target: T1, Ssl2 (Saccharomyces cerevisiae), Q00578; experiment: cryo-EM structure; coreTFIIH and Rad4–Rad23–Rad33 on −24*/+24 AAF-DNA with ATP, glycerol gradient with glutaraldehyde; Map 1 3.86 Å (TFIIH), Map 2 9.2 Å, Map 3 7.9 Å; Rad4, Rad33 and the Tfb1 PH domain placed by rigid-body docking of known structures or homology models; both purified; settings: remark: other sources report otherwise
7-subunit coreTFIIH = molecular target: T2, 7-subunit coreTFIIH (Saccharomyces cerevisiae | yeast, UniProt Q00578 1-843; P06839 1-778; P32776 1-642; Q02939 1-513; Q04673 1-461; Q12004 …); experiment: condition: only with AMP-PNP instead of ATP; Rad2 in ~6-fold molar excess; co-sedimentation; factor challenge as a5 but with AMP-PNP instead of ATP; both purified
T2 construct: Ssl2 (XPB homologue), ATPase/translocase subunit of yeast coreTFIIH; printed numbering runs to residue 843; Rad3 (XPD homologue), helicase subunit of yeast coreTFIIH; Tfb1 (p62 homologue), subunit of yeast coreTFIIH; Tfb2 (p52 homologue), subunit of yeast coreTFIIH; Ssl1 (p44 homologue), subunit of yeast coreTFIIH; Tfb4 (p34 homologue), subunit of yeast coreTFIIH; Tfb5 (p8 homologue), subunit of …

Row | binding [1] | binding (7-subunit coreTFIIH) | Binder
1 | binds | – | Tfb5 (natural protein, yeast, UniProt Q3E7C1 1-72, looked up, Tfb5 (p8 homologue), subunit of yeast coreTFIIH; Stood in the assays as part of coreTFIIH; also called yeast homologue of p8; source: purified from yeast as a subunit of coreTFIIH) MARARKGALVQCDPSIKALILQIDAKMSDIVLEELDDTHLLVNPSKVEFVKHELNRLLSKNIYNPMDEEENQ
2 | – | no binding | Rad2 (natural protein, yeast, UniProt P07276 1-1031, looked up, Rad2 (XPG homologue), yeast; plasmid pGVD52-RAD2HisSumo; also called yeast homolog of XPG; source: E. coli Rosetta(DE3), purified (HisTrap, Ulp1 cleavage, HisTrap flow-through, Heparin HP)) MGVHSFWDIAGPTARPVRLESLEDKRMAVDASIWIYQFLKAVRDQEGNAVKNSHITGFFRRICKLLYFGIRPVFVFDGGVPVLKRETIRQRKERRQGKRESAKSTARKLLALQLQNGSNDNVKNSTPSSGSSVQIFKPQDEWDLPDIPGFKYDKEDARVNSNKTFEKLMNSINGDGLEDIDLDTINPASAEFEELPKATQYLILSSLRLKSRLRMGYSKEQLETIFPNSMDFSRFQIDMVKRRNFFTQKLINTTGFQDGGASKLNEEVINRISGQKSKEYKLTKTNNGWILGLGANDGSDAQKAIVIDDKDAGALVKQLDSNAEDGDVLRWDDLEDNSLKIVRHESSNATTAPQKRSNRSEDEGCDSDECEWEEVELKPKNVKFVEDFSLKAARLPYMGQSLNNAGSKSFLDKRHDQASPSKTTPTMRISRISVEDDDEDYLKQIEEIEMMEAVQLSKMEKKPEADDKSKIAKPVTSKGTEARPPIVQYGLLGAQPDSKQPYHVTNLNSKSESVIKRTSKTVLSEFRPPSQQEDKGAILTEGEQNLNFISHKIPQFDFNNENSLLFQKNTESNVSQEATKEKSPIPEMPSWFSSTASQQLYNPYNTTNFVEDKNVRNEQESGAETTNKGSSYELLTGLNATEILERESEKESSNDENKDDDLEVLSEELFEDVPTKSQISKEAEDNDSRKVESINKEHRKPLIFDYDFSEDEEDNIVENMIKEQEEFDTFKNTTLSTSAERNVAENAFVEDELFEQQMKDKRDSDEVTMDMIKEVQELLSRFGIPYITAPMEAEAQCAELLQLNLVDGIITDDSDVFLFGGTKIYKNMFHEKNYVEFYDAESILKLLGLDRKNMIELAQLLGSDYTNGLKGMGPVSSIEVIAEFGNLKNFKDWYNNGQFDKRKQETENKFEKDLRKKLVNNEIILDDDFPSVMVYDAYMRPEVDHDTTPFVWGVPDLDMLRSFMKTQLGWPHEKSDEILIPLIRDVNKRKKKGKQKRINEFFPREYISGDKKLNTSKRISTATGKLKKRKM
